About 17,000 (5.5%) of roughly 310,000 compounds were called active. Inconclusive results, whose numbers are uncertain, are shown with a selection of clear calls. Calls come from the whole dose curve; as a rule, active = well fitted inhibition curve with a large enough effect; inconclusive = small, poorly fitted or top-dose-only effect, or effect the other way; inactive = no such curve, though single readings can be large or run the other way. A potency beside an inconclusive call is a rough fit, not a confirmed value.
target: Nuclear receptor ROR-gamma (Mus musculus) (UniProt P51450); assay: qHTS for inhibitors of ROR gamma transcriptional activity; details: Drosophila S2 Gal4-RORgamma UAS-luciferase reporter, 20 h; series mostly up to 53.6 µM; note: nearly all actives have a fitted effect of over 60% in size
Procedure, shortened: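 Stably transfected Drosophila Schneider cells are the test system, with ROR gamma fused to Gal4 and luciferase under UAS control; luminescence is read after 20 hr of 700 uM copper sulfate induction at ambient temperature.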
Potency is the fitted concentration of half-maximal effect.

Protein sequences, listed by entry. Tags and fused reporters are not part of them. Lines headed by an entry give the natural chain unless they say otherwise; changes in a name come on top.
UniProt P51450: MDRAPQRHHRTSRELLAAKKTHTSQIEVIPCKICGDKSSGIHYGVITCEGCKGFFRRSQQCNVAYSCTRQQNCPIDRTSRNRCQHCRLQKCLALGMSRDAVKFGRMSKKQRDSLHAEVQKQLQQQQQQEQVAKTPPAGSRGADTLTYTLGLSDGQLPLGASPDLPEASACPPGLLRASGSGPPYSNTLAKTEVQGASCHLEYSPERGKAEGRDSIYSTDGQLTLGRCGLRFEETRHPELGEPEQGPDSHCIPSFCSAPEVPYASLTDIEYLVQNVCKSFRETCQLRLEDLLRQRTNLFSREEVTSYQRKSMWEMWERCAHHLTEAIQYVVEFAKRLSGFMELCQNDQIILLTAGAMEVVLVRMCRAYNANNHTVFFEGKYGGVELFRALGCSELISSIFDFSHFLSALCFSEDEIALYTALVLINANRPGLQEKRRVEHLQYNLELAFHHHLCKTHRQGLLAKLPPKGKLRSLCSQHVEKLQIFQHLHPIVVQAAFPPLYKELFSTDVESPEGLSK

Row | Compound | Potency
1 | CC1=C(C(=O)NCc2ccccc2)C(c2ccccc2OCC(N)=O)NC(=O)N1 (centres undefined) | inconclusive: 10 µM [activator, single point]
2 | CC(=O)c1cccc(NC(=O)NN2CCN(C)CC2)c1 | inconclusive: 7.08 µM [inhibitor, partial curve]
3 | O=C(CSc1nn(-c2ccccc2)c(=S)s1)NC(=O)NCc1ccco1 | inconclusive: 6.31 µM [activator, single point]
4 | Cc1cc(C)nc(-n2nc(C)cc2NC(=O)CNC(C)c2ccccc2)n1 (centres undefined) | active: 1.58 µM
5 | Cc1cc(C)nc(-n2nc(C)cc2NC(=O)CN2CCC(C)CC2)n1 | inconclusive: 5.01 µM [inhibitor, partial curve, poor fit]
6 | CC1Cc2ccccc2N1C(=O)CN1CCC(n2nnc3cc(C(F)(F)F)ccc32)CC1 (centres undefined) | inactive
7 | CCc1ccc2[nH]c(=O)c(C3C(C#N)=C(N)Oc4c3ccc3cccnc43)cc2c1 (centres undefined) | inconclusive: 17.8 µM [inhibitor, single point]
8 | COc1ccc(CC2(CO)CCN(S(=O)(=O)c3cccc4cccnc34)CC2)cc1 | inactive
9 | Cc1ccc(C(=O)c2cc([N+](=O)[O-])ccc2N2CCOCC2)cc1 | inactive
10 | CN(Cc1ccccc1F)c1ncnc2sccc12 | inactive
11 | Cc1ccc(S(=O)(=O)NC(=NC(C)C)c2ccccc2)cc1 | inactive
12 | CCCCn1c(SCC(=O)Nc2nnc(C)s2)nc2c1c(=O)n(C)c(=O)n2C | inactive
13 | Cc1ccc(-c2nc(N)c3c(-c4ccc(C)cc4)nn(C(C)(C)C)c3n2)cc1 | inconclusive: 35.5 µM [activator, single point]
14 | COc1cccc(N2CC(=O)Nc3c(oc4nc(-c5ccccc5)cc(C)c34)C2=O)c1 | inactive
15 | Cc1nccc(-c2cc(-c3ccc(Cl)cc3Cl)no2)n1 | inactive
16 | COc1ccc(NC(=O)NC(C)C2CC3CCC2C3)cc1 (centres undefined) | inconclusive: 35.5 µM [activator, partial curve]
17 | CC1(C)CCCN(C(=O)N2c3ccccc3Sc3ccccc32)C1 | inactive
18 | COc1ccc(S(=O)(=O)NCc2ccc3c(c2)OCO3)cc1C(=O)O | inconclusive: 35.5 µM [inhibitor, single point]
19 | CCOC(=O)Cn1cc(/C=N/NC(=O)c2ccc(C#N)cc2F)c2ccccc21 | inconclusive: 28.2 µM [inhibitor, single point]
20 | O=C(c1c(Cl)nc2sccn12)N1CCN(c2cccc(Cl)c2)CC1 | inconclusive: 35.5 µM [activator, single point]
21 | CCn1c(SCc2ccccc2Cl)nc2nc3c(cc2c1=O)CCCC3 | active: 11.2 µM
22 | CCn1nc(C)c(CN2CCN(Cc3ccsc3)C(CCO)C2)c1C (centres undefined) | inactive
23 | Cc1ccc(O)c(Sc2cc(C)ccc2O)c1 | inconclusive: 11.2 µM [inhibitor, partial curve, poor fit]
24 | COc1ccc(NC(=O)CSc2ccccc2)cn1 | inconclusive: 17.8 µM [activator, single point]
25 | Cc1nc2ccccc2nc1N1CCCCC1 | inactive

Row | Compound | Potency
26 | Cc1ccc(CC(=O)N(Cc2ccccc2)c2ccccn2)cc1 | inconclusive: 35.5 µM [inhibitor, single point]
27 | CC(c1ccccc1C(O)c1ccccc1)N(C)C (centres undefined) | inactive
28 | CC1CCN(S(=O)(=O)c2ccc(S(=O)(=O)NCc3cccnc3)cc2)CC1 | inconclusive: 35.5 µM [inhibitor, single point]
29 | COc1ccc(-n2c(-c3ccc(Br)cc3)n[nH]c2=S)cc1 | active: 2.24 µM
30 | COc1ccc(Cn2c(SCC#N)nc3ccc(N4CCOCC4)cc3c2=O)cc1 | active: 10 µM
31 | O=C(Nc1cccnc1)/C(N=Nc1cccnc1)=C(\O)c1ccccc1 | inconclusive: 2 µM [activator, partial curve]
32 | Cn1c(NC(=O)c2ccc(Br)o2)cc(=O)n(C)c1=O | active: 12.6 µM
33 | CCOC(CCn1c(SCC(=O)NC2CCCC2)nc2ccccc2c1=O)OCC | inactive
34 | CN1CCC(=C2c3ccccc3C=Cc3ccccc32)CC1 | inconclusive: 35.5 µM [activator, single point]
35 | COc1cccc(NC(=O)C(=O)c2cn(CC(=O)N3CCCC3)c3ccccc23)c1 | inactive
36 | CC1CCCN(C(=S)Nc2ccc(F)cc2)C1 (centres undefined) | active: 8.91 µM
37 | Cc1c(Cl)cccc1NC(=S)NCCc1ccc(C(F)(F)F)cc1 | active: 2.51 µM
38 | FC(F)(F)c1ccccc1-c1cc(NCc2cccs2)ncn1 | inactive
39 | O=C(NCCc1ccc(Cl)cc1)c1cnc2n(c1=O)CCS2 | inconclusive: 0.794 µM [activator, full curve]
40 | CCSc1nnc(NC(=O)CSc2nccn2-c2cccc(C)c2)s1 | active: 11.2 µM
41 | Cc1ccc(-c2ccc(/C=N/NC(=O)c3ccccc3O)o2)cc1 | active: 0.708 µM
42 | CCC(C)OC(=O)C[N+](C)(C)CCOC1CC2CCC1(C)C2(C)C (centres undefined) | inconclusive: 17.8 µM [activator, single point]
43 | c1ccc2c(c1)Cn1c-2nc2ccccc21 | inconclusive: 10 µM [inhibitor, partial curve]
44 | Cc1cc(NC(=O)c2nn3cccnc3c2Cl)no1 | inconclusive: 12.6 µM [inhibitor, single point]
45 | CC(C)(C)C1CCc2c(sc3c2C(=O)NC(c2ccco2)N3)C1 (centres undefined) | inconclusive: 10 µM [activator, partial curve]
46 | CC(=O)c1c(N2CCCCC2)nc(=S)n(-c2ccccc2)c1C | inconclusive: 8.91 µM [inhibitor, partial curve]
47 | c1csc(-c2nc3ccccc3s2)c1 | inconclusive: 35.5 µM [inhibitor, single point]
48 | Cc1cc(C(=O)CC#N)c(C)n1-c1ccc(OC(F)F)cc1 | inconclusive: 12.6 µM [activator, single point]
49 | O=C1CNC(=O)/C(=C\c2ccccc2)N1 | inactive
50 | COc1cc(C)c(S(=O)(=O)NC2CC(C)(C)NC(C)(C)C2)cc1C | inactive

Row | Compound | Potency
51 | NN(Cc1ccccc1)C(=S)Nc1ccc(Cl)c(Cl)c1 | active: 11.2 µM
52 | COC(=O)c1[nH]c2cc(OC)ccc2c1NC(=O)CCN1CCN(c2ccccc2)CC1 | inactive
53 | CCOC(=O)C1=C(c2ccccc2)OC(N)=C(C#N)C1c1ccc(Cl)s1 (centres undefined) | inconclusive: 31.6 µM [inhibitor, single point]
54 | CC(=O)N1c2ccc(S(=O)(=O)N3CCC(C(=O)N4CCN(c5cccc(C(F)(F)F)c5)CC4)CC3)cc2CC1C (centres undefined) | inconclusive: 10 µM [activator, partial curve]
55 | COc1ccc(N2CCCn3c2nc2c3c(=O)n(CCCc3ccccc3)c(=O)n2C)cc1 | inconclusive: 1.58 µM [activator, partial curve]
56 | COc1ccc(-c2csc(NC(=O)CC(C)C)n2)cc1 | inconclusive: 12.6 µM [activator, single point]
57 | CCn1c(SCC(=O)N2CCCC2)nnc1-c1ccco1 | inactive
58 | C=CCN1C(=O)/C(=C\C(C)=C\c2ccccc2)SC1=S | inconclusive: 35.5 µM [activator, single point]
59 | COc1ccc(NC(=O)CSc2nc3n[nH]c(C)c3c(=N)n2-c2ccc(Cl)c(C)c2)cc1OC | inconclusive: 14.1 µM [inhibitor, single point]
60 | COc1ccc(C(=O)N(C)c2ccccc2C(=O)NCCc2ccccc2)cc1 | inactive
61 | COc1cc(CNc2ccccc2Oc2cc(=O)n(C)c(=O)n2C)cc(OC)c1OC | inactive
62 | Cc1cc(-c2ccc(N=Nc3ccc4c(S(=O)(=O)O)cc(S(=O)(=O)O)c(N)c4c3O)c(C)c2)ccc1N=Nc1ccc2c(S(=O)(=O)O)cc(S(=O)(=O)O)c(N)c2c1O | inconclusive: 12.6 µM [inhibitor, partial curve]
63 | CCc1cc(C(=O)N2CCCC(C(=O)c3ccc(C(F)(F)F)cc3)C2)n(C)n1 (centres undefined) | inconclusive: 20 µM [activator, single point]
64 | CCCN1C(=O)C(O)(c2c(C)[nH]c3ccccc23)c2ccccc21 (centres undefined) | inactive
65 | Cc1cc(NC(=O)CSc2nnc(-c3ccc(Cl)s3)o2)no1 | inconclusive: 31.6 µM [inhibitor, single point]
66 | Fc1ccccc1CNc1nc(-c2cccnc2)nc2ccccc12 | inconclusive: 35.5 µM [activator, single point]
67 | O=C(Cc1cccs1)NNC(=S)NC(=O)c1ccco1 | active: 7.94 µM
68 | CC(C)(C)S(=O)(=O)/C(C#N)=N/Nc1ccc(C#N)cc1 | inconclusive: 35.5 µM [activator, single point]
69 | S=c1[nH]nc(-c2ccccn2)n1/N=C/c1c(Cl)cccc1Cl | inconclusive: 17.8 µM [inhibitor, single point]
70 | COc1ccc2c(c1OC)C(Cc1ccccc1)N1CCc3cc4c(cc3C1=C2)OCO4 (centres undefined) | inconclusive: 31.6 µM [inhibitor, partial curve, poor fit]
71 | O=C1CC(c2ccccc2)=NN1c1ccc([N+](=O)[O-])cc1 | inconclusive: 35.5 µM [inhibitor, single point]
72 | CCOC(=O)N1CCN(C(=O)CNC(=O)c2nn(-c3ccc(OC)cc3OC)c(=O)c3ccccc23)CC1 | inconclusive: 14.1 µM [inhibitor, partial curve]
73 | C=CCOC(=O)/C(=C\c1cccc2ccccc12)NC(=O)c1ccccc1 | inconclusive: 6.31 µM [activator, partial curve, poor fit]
74 | CCc1cc2c(SCC(=O)c3ccccc3)ncnc2s1 | inconclusive: 31.6 µM [inhibitor, single point]

16 compounds already listed, ordered by heavy-atom count, smallest number first:
Row | Compound | Potency
51 | NN(Cc1ccccc1)C(=S)Nc1ccc(Cl)c(Cl)c1 | active: 11.2 µM
74 | CCc1cc2c(SCC(=O)c3ccccc3)ncnc2s1 | inconclusive: 31.6 µM [inhibitor, single point]
65 | Cc1cc(NC(=O)CSc2nnc(-c3ccc(Cl)s3)o2)no1 | inconclusive: 31.6 µM [inhibitor, single point]
64 | CCCN1C(=O)C(O)(c2c(C)[nH]c3ccccc23)c2ccccc21 (centres undefined) | inactive
66 | Fc1ccccc1CNc1nc(-c2cccnc2)nc2ccccc12 | inconclusive: 35.5 µM [activator, single point]
53 | CCOC(=O)C1=C(c2ccccc2)OC(N)=C(C#N)C1c1ccc(Cl)s1 (centres undefined) | inconclusive: 31.6 µM [inhibitor, single point]
73 | C=CCOC(=O)/C(=C\c1cccc2ccccc12)NC(=O)c1ccccc1 | inconclusive: 6.31 µM [activator, partial curve, poor fit]
63 | CCc1cc(C(=O)N2CCCC(C(=O)c3ccc(C(F)(F)F)cc3)C2)n(C)n1 (centres undefined) | inconclusive: 20 µM [activator, single point]
60 | COc1ccc(C(=O)N(C)c2ccccc2C(=O)NCCc2ccccc2)cc1 | inactive
61 | COc1cc(CNc2ccccc2Oc2cc(=O)n(C)c(=O)n2C)cc(OC)c1OC | inactive
52 | COC(=O)c1[nH]c2cc(OC)ccc2c1NC(=O)CCN1CCN(c2ccccc2)CC1 | inactive
55 | COc1ccc(N2CCCn3c2nc2c3c(=O)n(CCCc3ccccc3)c(=O)n2C)cc1 | inconclusive: 1.58 µM [activator, partial curve]
59 | COc1ccc(NC(=O)CSc2nc3n[nH]c(C)c3c(=N)n2-c2ccc(Cl)c(C)c2)cc1OC | inconclusive: 14.1 µM [inhibitor, single point]
72 | CCOC(=O)N1CCN(C(=O)CNC(=O)c2nn(-c3ccc(OC)cc3OC)c(=O)c3ccccc23)CC1 | inconclusive: 14.1 µM [inhibitor, partial curve]
54 | CC(=O)N1c2ccc(S(=O)(=O)N3CCC(C(=O)N4CCN(c5cccc(C(F)(F)F)c5)CC4)CC3)cc2CC1C (centres undefined) | inconclusive: 10 µM [activator, partial curve]
62 | Cc1cc(-c2ccc(N=Nc3ccc4c(S(=O)(=O)O)cc(S(=O)(=O)O)c(N)c4c3O)c(C)c2)ccc1N=Nc1ccc2c(S(=O)(=O)O)cc(S(=O)(=O)O)c(N)c2c1O | inconclusive: 12.6 µM [inhibitor, partial curve]

— PubChem BioAssay AID2551 (National Center for Advancing Translational Sciences (NCATS), 2010)
